Laboratory results: PubChem BioAssay AID1159590 (NIAID, 2016)
Purpose: 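Which core TLR signalling genes NF-kB activation by Pam3CSK4 depends on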. Cell system: mouse RAW264.7 macrophage reporter cells expressing GFP-p65 and a Tnf promoter-mCherry. Reagent: single siRNA against mouse genes. Time to read-out: 48 to 72 hours after siRNA transfection, then 40 minutes of ligand. Challenge: Pam3CSK4 (TLR2/1 agonist) for 40 minutes before fixation; dose not given. Detection: 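GFP-p65 nuclear to cytoplasmic intensity ratio from imaging, normalised per plate by median and MAD, given as robust z against negative controls, mean of replicates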. Reading the numbers: p65 nuclear entry z-score: higher = more p65 moved into nuclei than in negative-control wells. Active means: In these data the active calls have p65 nuclear entry z-score, replicate mean at about -1.5 or lower, or at about 1.5 or higher. Calls: active = strong change, up or down; inactive = little change.
Shown is one part, drawn at random, of 756 reagents. 128 of them (17%) count as active. 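Calls are two-sided: both reduced and increased p65 nuclear entry count as active.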 Entries without a mark were called inactive. The numbers tell different reagents against one gene apart. No sequences are given here. Not given: the amount of reagent.

With Irak2 #1, how do the results read?
p65 nuclear entry z-score, replicate mean: -1.27

For Irak2 #2, what was measured?
p65 nuclear entry z-score, replicate mean: -0.295

For Irak2 #3, what does the deposit list?
p65 nuclear entry z-score, replicate mean: -1.82 (active)

With Irak2 #4, what does the deposit list?
p65 nuclear entry z-score, replicate mean: -0.701

With Irak2 #5, what does the deposit list?
p65 nuclear entry z-score, replicate mean: -0.538

For Irak2 #6, what does the deposit list?
p65 nuclear entry z-score, replicate mean: 0.227

With Ikbkg #1, what does the deposit list?
p65 nuclear entry z-score, replicate mean: -1.19

For Ikbkg #2, how do the results read?
p65 nuclear entry z-score, replicate mean: -0.061

Which result is listed for Ikbkg #3?
p65 nuclear entry z-score, replicate mean: -0.856

For Ikbkg #4, how do the results read?
p65 nuclear entry z-score, replicate mean: -1.55 (active)

With Ikbkg #5, what was measured?
p65 nuclear entry z-score, replicate mean: -0.765

With Ikbkg #6, what was measured?
p65 nuclear entry z-score, replicate mean: -0.397

How did the screen score Map3k8 #1?
p65 nuclear entry z-score, replicate mean: 0.223

For Map3k8 #2, what does the deposit list?
p65 nuclear entry z-score, replicate mean: 1.26

For Map3k8 #3, what was measured?
p65 nuclear entry z-score, replicate mean: -0.19

Which result is listed for Map3k8 #4?
p65 nuclear entry z-score, replicate mean: -0.0618

With Map3k8 #5, what does the deposit list?
p65 nuclear entry z-score, replicate mean: -0.251

With Map3k8 #6, what was measured?
p65 nuclear entry z-score, replicate mean: 0.144

With Mapk10 #1, how do the results read?
p65 nuclear entry z-score, replicate mean: 0.799

What is on record for Mapk10 #2?
p65 nuclear entry z-score, replicate mean: 0.994

For Mapk10 #3, how do the results read?
p65 nuclear entry z-score, replicate mean: -1.43

How did the screen score Mapk10 #4?
p65 nuclear entry z-score, replicate mean: 0.17

For Mapk10 #5, what does the deposit list?
p65 nuclear entry z-score, replicate mean: -0.832

What is on record for Mapk10 #6?
p65 nuclear entry z-score, replicate mean: -1.22

No new results follow: 5 of the entries above.
Map3k8 #2 | p65 nuclear entry z-score, replicate mean: 1.26
Map3k8 #3 | p65 nuclear entry z-score, replicate mean: -0.19
Map3k8 #4 | p65 nuclear entry z-score, replicate mean: -0.0618
Map3k8 #5 | p65 nuclear entry z-score, replicate mean: -0.251
Map3k8 #6 | p65 nuclear entry z-score, replicate mean: 0.144

The results go on.
What is on record for Map2k2 #1?
p65 nuclear entry z-score, replicate mean: 0.227

Which result is listed for Map2k2 #2?
p65 nuclear entry z-score, replicate mean: -0.781

How did the screen score Map2k2 #3?
p65 nuclear entry z-score, replicate mean: -0.489

How did the screen score Map2k2 #4?
p65 nuclear entry z-score, replicate mean: 2.91 (active)

For Map2k2 #5, what was measured?
p65 nuclear entry z-score, replicate mean: -0.157

How did the screen score Map2k2 #6?
p65 nuclear entry z-score, replicate mean: -0.797

For Nfkbia #1, what does the deposit list?
p65 nuclear entry z-score, replicate mean: -1.77 (active)

What is on record for Nfkbia #2?
p65 nuclear entry z-score, replicate mean: -3.11 (active)

With Nfkbia #3, what was measured?
p65 nuclear entry z-score, replicate mean: -1.62 (active)

What did the screen give for Nfkbia #4?
p65 nuclear entry z-score, replicate mean: 0.0381

What did the screen give for Nfkbia #5?
p65 nuclear entry z-score, replicate mean: -1.5

What is on record for Nfkbia #6?
p65 nuclear entry z-score, replicate mean: -0.952

Which result is listed for Rel #1?
p65 nuclear entry z-score, replicate mean: 0.0672

Which result is listed for Rel #2?
p65 nuclear entry z-score, replicate mean: -0.264

What is on record for Rel #3?
p65 nuclear entry z-score, replicate mean: 0.893

With Rel #4, how do the results read?
p65 nuclear entry z-score, replicate mean: 1.17

With Rel #5, what does the deposit list?
p65 nuclear entry z-score, replicate mean: -1.3

What did the screen give for Rel #6?
p65 nuclear entry z-score, replicate mean: -0.287

For Tank #1, what does the deposit list?
p65 nuclear entry z-score, replicate mean: 1.26

For Tank #2, how do the results read?
p65 nuclear entry z-score, replicate mean: 3.95 (active)

For Tank #3, how do the results read?
p65 nuclear entry z-score, replicate mean: 0.589

With Tank #4, how do the results read?
p65 nuclear entry z-score, replicate mean: -0.593

For Tank #5, how do the results read?
p65 nuclear entry z-score, replicate mean: 0.888

With Tank #6, what does the deposit list?
p65 nuclear entry z-score, replicate mean: -0.924

With Irf7 #1, what does the deposit list?
p65 nuclear entry z-score, replicate mean: -1.6 (active)

With Irf7 #2, what was measured?
p65 nuclear entry z-score, replicate mean: 1.72 (active)

How did the screen score Irf7 #3?
p65 nuclear entry z-score, replicate mean: 1.03

What did the screen give for Irf7 #4?
p65 nuclear entry z-score, replicate mean: -0.59

What did the screen give for Irf7 #5?
p65 nuclear entry z-score, replicate mean: 2.33 (active)

With Irf7 #6, what was measured?
p65 nuclear entry z-score, replicate mean: -1.13

For Irf5 #1, how do the results read?
p65 nuclear entry z-score, replicate mean: -0.0169

What did the screen give for Irf5 #2?
p65 nuclear entry z-score, replicate mean: -0.791

What is on record for Irf5 #3?
p65 nuclear entry z-score, replicate mean: -0.216

What did the screen give for Irf5 #4?
p65 nuclear entry z-score, replicate mean: 0.163

For Irf5 #5, how do the results read?
p65 nuclear entry z-score, replicate mean: -0.767

What did the screen give for Irf5 #6?
p65 nuclear entry z-score, replicate mean: -2.73 (active)
